Measured values from patent publication US20130039998A1, “COMPOSITIONS OF MODULATORS OF THE WNT/BETA-CATENIN PATHWAY AND BENZAMIDE AND/OR HYDROXAMIC ACID DERIVATIVES TO TREAT BIPOLAR DISORDER” (UNIVERSITY OF WASHINGTON, priority 2008, published 2013).
At least one structure is not confirmed: it was looked up by name or label, or the drawing left a doubt.

Sequences of proteins named here, by UniProt entry; tags and fusion partners are left off. A change or cut given only in a name is not applied to a line headed by its entry.
UniProt Q9UQL6: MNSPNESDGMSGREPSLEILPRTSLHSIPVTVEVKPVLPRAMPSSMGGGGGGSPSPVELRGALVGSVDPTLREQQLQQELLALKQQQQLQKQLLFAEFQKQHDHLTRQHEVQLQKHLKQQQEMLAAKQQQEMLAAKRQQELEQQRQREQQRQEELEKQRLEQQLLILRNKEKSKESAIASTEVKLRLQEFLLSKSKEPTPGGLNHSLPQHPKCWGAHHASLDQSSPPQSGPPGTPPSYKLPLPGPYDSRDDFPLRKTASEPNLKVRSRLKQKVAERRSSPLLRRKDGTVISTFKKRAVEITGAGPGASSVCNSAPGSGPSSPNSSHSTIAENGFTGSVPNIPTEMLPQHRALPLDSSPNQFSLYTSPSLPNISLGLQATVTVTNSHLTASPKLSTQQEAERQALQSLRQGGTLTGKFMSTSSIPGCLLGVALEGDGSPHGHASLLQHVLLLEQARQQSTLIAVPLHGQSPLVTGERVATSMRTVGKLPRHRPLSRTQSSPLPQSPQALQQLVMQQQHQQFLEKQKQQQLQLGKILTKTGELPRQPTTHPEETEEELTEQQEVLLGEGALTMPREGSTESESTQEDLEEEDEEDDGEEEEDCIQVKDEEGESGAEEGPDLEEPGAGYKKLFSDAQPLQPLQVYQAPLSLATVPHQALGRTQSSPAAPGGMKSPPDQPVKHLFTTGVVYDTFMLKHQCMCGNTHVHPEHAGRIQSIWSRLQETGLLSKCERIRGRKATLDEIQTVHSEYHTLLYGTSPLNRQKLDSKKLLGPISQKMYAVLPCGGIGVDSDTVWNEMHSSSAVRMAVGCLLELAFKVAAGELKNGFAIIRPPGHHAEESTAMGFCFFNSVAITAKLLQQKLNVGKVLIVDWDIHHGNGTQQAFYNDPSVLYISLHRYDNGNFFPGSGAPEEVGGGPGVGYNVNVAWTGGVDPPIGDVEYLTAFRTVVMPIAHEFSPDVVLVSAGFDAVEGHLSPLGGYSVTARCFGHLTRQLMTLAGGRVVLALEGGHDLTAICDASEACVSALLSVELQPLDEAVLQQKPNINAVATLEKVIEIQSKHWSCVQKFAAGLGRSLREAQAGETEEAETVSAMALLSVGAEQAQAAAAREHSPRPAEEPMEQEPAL

Biological target: T1, HDAC5 (Homo sapiens, UniProt Q9UQL6)
T1 construct: purchased BPS Biosciences
Experiment: Fluorimetric deacetylase assay, HDAC5
Type: biochemical

Question: Which “effect on HDAC5” value does the source give for CCCC(CCC)C(=O)O [valproate] here?
Answer: The value was “no effect”.
